Results are given in words; binding and its absence hold for the method and conditions named. In cells and extracts the contact can be indirect. These calls come from enrichment with a bait or labelling near it, and not all partners need be listed. Sequences can lack the tags named with a protein.
Target: T1, GST-Ad9 E4-ORF1 fusion protein (human adenovirus type 9 (Ad9)) (UniProt P89079)
T1 sequence: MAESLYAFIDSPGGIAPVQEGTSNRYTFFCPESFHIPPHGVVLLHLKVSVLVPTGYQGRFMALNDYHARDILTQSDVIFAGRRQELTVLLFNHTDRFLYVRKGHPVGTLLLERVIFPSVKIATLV
Experiment: affinity purification with mass spectrometry; GST-E4-ORF1 pulldown from extracts of suspension-cultured HeLa cells; recovered proteins resolved by SDS-PAGE, gel sections digested with trypsin, MALDI-TOF mass spectrometry; only the target purified

Amino acid sequences for entries named in this document (tags omitted).
UniProt Q92841: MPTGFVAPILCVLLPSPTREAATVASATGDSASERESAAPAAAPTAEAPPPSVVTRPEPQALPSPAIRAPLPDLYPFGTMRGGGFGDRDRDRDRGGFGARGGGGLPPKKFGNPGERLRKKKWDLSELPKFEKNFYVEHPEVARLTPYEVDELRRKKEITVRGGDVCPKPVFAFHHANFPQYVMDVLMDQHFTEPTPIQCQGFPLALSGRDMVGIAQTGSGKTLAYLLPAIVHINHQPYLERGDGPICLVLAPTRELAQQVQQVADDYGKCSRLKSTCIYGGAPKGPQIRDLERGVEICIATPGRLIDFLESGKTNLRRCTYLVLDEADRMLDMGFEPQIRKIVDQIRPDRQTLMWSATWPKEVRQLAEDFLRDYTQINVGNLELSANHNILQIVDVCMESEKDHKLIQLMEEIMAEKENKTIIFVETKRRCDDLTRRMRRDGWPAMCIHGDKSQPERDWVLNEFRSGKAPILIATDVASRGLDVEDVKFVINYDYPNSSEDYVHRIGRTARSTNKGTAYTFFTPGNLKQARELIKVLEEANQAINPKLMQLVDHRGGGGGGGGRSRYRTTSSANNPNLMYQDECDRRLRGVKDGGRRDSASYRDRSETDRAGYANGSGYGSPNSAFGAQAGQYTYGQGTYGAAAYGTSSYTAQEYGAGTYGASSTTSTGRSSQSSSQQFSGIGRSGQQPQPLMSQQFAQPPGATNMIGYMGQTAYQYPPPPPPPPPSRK
UniProt Q659C4: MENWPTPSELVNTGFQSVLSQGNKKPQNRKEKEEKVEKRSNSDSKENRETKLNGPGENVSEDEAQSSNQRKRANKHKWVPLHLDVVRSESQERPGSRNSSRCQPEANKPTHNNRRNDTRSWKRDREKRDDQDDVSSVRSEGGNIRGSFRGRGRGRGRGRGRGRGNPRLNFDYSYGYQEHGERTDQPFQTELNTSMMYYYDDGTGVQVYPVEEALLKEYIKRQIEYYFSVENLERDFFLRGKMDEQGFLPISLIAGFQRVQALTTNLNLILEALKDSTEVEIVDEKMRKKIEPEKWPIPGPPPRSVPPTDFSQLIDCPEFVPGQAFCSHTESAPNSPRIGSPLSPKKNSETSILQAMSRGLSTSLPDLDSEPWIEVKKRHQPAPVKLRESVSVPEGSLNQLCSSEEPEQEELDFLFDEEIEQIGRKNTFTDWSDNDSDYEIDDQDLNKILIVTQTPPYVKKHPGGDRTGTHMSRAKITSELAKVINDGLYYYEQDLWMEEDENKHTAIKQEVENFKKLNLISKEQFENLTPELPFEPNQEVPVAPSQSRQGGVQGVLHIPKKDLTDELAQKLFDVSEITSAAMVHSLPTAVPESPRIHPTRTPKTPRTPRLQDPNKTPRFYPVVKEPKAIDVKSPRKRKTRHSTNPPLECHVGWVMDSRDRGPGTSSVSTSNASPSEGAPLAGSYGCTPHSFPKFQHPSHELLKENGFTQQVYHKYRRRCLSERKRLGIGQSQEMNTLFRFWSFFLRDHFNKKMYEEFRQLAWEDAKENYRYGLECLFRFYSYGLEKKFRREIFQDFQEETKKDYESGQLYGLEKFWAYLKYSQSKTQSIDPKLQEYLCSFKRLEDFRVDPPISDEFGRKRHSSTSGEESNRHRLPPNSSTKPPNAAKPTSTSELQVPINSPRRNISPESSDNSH
UniProt Q9HAU5: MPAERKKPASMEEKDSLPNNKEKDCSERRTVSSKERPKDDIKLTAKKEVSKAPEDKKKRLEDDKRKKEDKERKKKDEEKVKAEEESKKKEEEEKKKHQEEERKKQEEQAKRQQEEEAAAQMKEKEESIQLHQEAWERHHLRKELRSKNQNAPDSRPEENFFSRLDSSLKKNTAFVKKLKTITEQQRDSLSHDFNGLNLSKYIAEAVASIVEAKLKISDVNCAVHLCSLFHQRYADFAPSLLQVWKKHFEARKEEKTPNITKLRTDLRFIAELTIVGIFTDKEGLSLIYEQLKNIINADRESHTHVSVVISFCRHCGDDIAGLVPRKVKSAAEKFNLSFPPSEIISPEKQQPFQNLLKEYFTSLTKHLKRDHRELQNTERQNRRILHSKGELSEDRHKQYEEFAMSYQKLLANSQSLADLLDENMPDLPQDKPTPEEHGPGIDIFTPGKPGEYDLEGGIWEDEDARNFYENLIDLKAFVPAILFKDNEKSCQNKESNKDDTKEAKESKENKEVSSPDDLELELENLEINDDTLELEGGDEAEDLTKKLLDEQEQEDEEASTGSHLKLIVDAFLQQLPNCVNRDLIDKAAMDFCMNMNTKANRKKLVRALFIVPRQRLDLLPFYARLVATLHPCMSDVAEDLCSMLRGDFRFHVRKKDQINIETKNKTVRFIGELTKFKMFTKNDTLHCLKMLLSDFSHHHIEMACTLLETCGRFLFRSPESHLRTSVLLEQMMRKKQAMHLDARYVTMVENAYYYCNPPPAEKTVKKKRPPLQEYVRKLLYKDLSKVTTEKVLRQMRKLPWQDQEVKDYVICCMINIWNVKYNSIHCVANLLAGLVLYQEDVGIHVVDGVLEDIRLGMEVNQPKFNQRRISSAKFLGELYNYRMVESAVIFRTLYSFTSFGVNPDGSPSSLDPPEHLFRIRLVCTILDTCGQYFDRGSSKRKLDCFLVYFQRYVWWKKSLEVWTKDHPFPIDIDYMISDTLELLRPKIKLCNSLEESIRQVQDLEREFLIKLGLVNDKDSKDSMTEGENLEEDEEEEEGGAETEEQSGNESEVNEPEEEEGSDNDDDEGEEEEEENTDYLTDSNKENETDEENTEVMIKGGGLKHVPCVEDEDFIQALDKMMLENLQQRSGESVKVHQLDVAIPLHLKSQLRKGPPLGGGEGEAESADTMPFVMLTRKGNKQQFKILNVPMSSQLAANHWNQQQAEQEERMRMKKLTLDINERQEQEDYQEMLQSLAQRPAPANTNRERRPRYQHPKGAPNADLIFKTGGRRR
UniProt O00459: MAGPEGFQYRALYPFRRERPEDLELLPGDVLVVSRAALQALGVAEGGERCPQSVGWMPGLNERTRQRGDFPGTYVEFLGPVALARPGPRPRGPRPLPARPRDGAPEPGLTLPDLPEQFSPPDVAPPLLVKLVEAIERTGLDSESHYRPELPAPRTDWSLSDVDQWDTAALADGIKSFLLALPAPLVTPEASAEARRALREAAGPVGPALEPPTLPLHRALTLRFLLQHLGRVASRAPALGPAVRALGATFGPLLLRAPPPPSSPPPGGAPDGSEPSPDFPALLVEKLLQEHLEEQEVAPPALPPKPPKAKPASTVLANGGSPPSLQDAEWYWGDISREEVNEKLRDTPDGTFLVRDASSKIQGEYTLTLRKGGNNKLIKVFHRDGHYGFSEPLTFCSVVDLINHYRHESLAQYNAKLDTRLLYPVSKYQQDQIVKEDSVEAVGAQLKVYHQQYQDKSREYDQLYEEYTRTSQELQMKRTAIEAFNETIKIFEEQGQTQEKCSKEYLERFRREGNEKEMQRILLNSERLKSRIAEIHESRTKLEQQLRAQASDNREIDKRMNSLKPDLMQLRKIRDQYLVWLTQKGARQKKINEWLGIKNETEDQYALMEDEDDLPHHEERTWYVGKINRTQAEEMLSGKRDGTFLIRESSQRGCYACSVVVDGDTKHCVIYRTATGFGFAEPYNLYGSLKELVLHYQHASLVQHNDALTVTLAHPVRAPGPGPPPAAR
UniProt Q15717: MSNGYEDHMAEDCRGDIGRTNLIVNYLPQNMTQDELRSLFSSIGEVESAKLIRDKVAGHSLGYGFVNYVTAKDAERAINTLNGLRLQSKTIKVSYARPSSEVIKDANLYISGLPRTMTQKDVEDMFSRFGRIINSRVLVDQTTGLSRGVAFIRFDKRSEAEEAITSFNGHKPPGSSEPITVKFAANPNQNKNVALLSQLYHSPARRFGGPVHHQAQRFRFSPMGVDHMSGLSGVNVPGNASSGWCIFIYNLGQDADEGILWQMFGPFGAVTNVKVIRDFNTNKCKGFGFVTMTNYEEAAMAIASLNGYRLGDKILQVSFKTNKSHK
UniProt P00519: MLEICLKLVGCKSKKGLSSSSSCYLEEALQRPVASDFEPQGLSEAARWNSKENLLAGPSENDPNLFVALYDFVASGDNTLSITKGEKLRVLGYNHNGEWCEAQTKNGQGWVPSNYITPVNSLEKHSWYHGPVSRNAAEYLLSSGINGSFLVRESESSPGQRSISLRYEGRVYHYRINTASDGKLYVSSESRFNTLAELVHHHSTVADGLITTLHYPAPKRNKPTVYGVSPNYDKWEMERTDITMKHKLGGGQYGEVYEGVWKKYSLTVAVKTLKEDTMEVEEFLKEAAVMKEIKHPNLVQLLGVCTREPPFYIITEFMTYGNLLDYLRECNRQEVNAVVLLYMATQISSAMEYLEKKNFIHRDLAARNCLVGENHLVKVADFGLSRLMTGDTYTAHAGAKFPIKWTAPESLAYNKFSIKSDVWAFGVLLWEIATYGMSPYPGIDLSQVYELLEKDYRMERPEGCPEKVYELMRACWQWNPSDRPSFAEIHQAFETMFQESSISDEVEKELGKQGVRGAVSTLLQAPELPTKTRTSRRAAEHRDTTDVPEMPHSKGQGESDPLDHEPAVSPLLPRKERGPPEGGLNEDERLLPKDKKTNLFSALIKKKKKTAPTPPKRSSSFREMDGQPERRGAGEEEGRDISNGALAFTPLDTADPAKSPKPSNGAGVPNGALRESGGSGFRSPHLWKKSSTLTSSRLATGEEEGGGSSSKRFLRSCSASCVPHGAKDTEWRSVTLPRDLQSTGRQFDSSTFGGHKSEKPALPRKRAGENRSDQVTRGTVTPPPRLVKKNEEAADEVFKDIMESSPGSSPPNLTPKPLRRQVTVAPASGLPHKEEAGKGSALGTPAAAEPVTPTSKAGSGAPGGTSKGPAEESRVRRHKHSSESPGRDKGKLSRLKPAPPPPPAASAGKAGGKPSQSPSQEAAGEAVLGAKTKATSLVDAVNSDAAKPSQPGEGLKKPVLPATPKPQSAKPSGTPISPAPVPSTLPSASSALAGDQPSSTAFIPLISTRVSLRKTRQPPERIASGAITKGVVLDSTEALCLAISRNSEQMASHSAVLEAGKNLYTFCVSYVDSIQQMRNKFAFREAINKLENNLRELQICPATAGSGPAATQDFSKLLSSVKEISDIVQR
UniProt O00425: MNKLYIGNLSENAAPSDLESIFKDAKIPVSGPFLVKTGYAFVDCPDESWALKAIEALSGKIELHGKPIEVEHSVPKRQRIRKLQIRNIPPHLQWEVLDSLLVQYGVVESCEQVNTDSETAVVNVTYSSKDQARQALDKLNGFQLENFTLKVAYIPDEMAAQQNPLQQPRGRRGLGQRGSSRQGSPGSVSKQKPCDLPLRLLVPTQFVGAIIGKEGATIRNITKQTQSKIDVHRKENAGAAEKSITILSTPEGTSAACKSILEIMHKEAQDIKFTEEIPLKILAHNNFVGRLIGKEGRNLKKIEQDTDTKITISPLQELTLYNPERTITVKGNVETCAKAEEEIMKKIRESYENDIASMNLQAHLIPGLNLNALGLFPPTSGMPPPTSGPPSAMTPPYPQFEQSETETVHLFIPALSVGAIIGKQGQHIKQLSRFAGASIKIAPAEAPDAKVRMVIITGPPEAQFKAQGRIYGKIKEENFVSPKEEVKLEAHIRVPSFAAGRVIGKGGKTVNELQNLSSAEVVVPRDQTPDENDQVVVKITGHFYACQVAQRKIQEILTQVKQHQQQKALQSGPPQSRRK
UniProt P27986: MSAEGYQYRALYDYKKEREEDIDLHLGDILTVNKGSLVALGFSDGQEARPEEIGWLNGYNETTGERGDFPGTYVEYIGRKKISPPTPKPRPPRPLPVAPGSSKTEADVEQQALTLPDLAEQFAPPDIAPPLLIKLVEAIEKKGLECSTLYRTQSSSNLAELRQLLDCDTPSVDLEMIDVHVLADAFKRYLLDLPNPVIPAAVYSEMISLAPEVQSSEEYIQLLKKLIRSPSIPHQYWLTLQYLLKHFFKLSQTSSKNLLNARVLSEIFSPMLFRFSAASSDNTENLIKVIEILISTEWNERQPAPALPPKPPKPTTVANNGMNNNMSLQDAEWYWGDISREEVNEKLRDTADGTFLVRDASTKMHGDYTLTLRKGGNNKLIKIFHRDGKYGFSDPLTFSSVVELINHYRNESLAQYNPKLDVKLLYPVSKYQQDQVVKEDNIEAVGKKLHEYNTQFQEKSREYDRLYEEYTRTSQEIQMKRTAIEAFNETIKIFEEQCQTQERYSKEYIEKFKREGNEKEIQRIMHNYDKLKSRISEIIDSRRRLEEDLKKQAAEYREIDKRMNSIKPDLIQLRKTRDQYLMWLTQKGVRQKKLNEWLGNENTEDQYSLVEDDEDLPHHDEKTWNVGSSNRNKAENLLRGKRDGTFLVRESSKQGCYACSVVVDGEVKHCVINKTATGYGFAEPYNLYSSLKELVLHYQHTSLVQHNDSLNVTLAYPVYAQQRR

Row | Substance | binding
1 | DDX17 (from UniProt Q92841 1-729) | binds
2 | LARP2 (from UniProt Q659C4 1-914) | binds
3 | UPF2 (from UniProt Q9HAU5 1-1272) | binds
4 | PI3K regulatory subunit p85β (endogenous) (from UniProt O00459 1-728) | binds
5 | ELAV1 (from UniProt Q15717 1-326) | binds
6 | Abl1 (from UniProt P00519 1-1130) | binds
7 | IGF2BP3 (from UniProt O00425 1-579) | binds
8 | PI3K regulatory subunit p85α (endogenous) (from UniProt P27986 1-724) | binds

From paper PMC4006922, “The Human Adenovirus E4-ORF1 Protein Subverts Discs Large 1 to Mediate Membrane Recruitment and Dysregulation of Phosphatidylinositol 3-Kinase” (PLoS Pathogens, 2014)
